Results taken from article PMC6271703, “Absorbability, Mechanism and Structure-Property Relationship of Three Phenolic Acids from the Flowers of Trollius chinensis” (Molecules, 2014).

Assay: Caco-2 cell monolayer transport experiment
Assay type: in vitro ADME
Details: human, standard markers added to the AP side, model validation, read-out: Papp of reference controls
Experimental: To facilitate the cells’ differentiation and formation of a confluent monolayer, Caco-2 cells were seeded at a density of 1.0 × 10^5 cells/cm^2 on a 12-well Transwell insert filter. The inserts were fed with culture medium at 2 days intervals in the first week, and then at daily intervals for the AP side and 2 days intervals for the BL side until they were used for the transport experiment 21 days after seeding. The AP and BL sides contained 0.5 mL and 1.5 mL of culture medium, respectively. The integrity and viability of the cell monolayers were evaluated by measuring TEER values in culture medium at 37 °C using Millicell®-ERS system (Millipore Corp., Bedford, MA, USA) and transport experiment using standard compounds, i.e., propranolol and atenolol which were well-known control substances for high and poor transcellular transport markers, respectively. […]
On day 21, transport study was initiated by careful removal of the culture medium from AP and BL sides. […] Upon completion of all permeation experiments, TEER values were measured to ensure that cell monolayer integrity and viability had not been adversely affected by experimental conditions.
The cell survival rate (%) was calculated using the equation survival rate= A/A0 × 100, wherein A was the average absorbance value of treatment group; A0 was the average absorbance value of the blank control group. […]

Compound CC(C)NCC(O)COc1ccc(CC(N)=O)cc1 (stereo not shown) [atenolol, reference compound] has a Papp at 180 min of 0.692 ×10⁻⁶ cm/s.
